Laboratory results: PubChem BioAssay AID1259260 (Sanger Institute, 2017)

Assay: 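Kinases whose knock-down kills colorectal cancer cells or boosts drug effects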 (primary screen)
Cells: human NCI-H716 colorectal cancer cells
Knock-down reagent: siRNA pool against human genes
Conditions: anchor drugs BYL719 (alpelisib) 1 µM, cetuximab 5 µg/ml or trametinib 10 nM, each at a dose chosen to harm viability only mildly; DMSO vehicle for the knock-down-alone arm
Read-out: 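Mean viability over replicates against non-targeting siRNA, robust z-score without drug, and per-drug synergy comparing combined with single treatments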
Reading the numbers: viability robust z-score, siRNA alone: higher = more surviving cells; below -3 called essential; viability vs control, no drug: higher = more surviving cells; synergy score with BYL719 and synergy score with cetuximab and synergy score with trametinib: higher = stronger synergy (synthetic lethality) with drug
Rule for the call: 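Essential when the robust z-score for knock-down alone falls below -3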
Meaning of the calls: active = essential (knock-down alone lowers viability); inactive = no essential effect
This is an unselected part of 794 reagents. 13 of all reagents (1.6%) were called active. 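Calls reflect only knock-down without drug; synergy above 0.15 was grouped apart and does not change the call.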 Viability is capped at 1. Not given: the amount of reagent, the time to read-out.

| gene | viability robust z-score, siRNA alone | viability vs control, no drug (fraction of control) | synergy score with BYL719 | synergy score with cetuximab | synergy score with trametinib | Outcome |
| --- | --- | --- | --- | --- | --- | --- |
| CDK14 (cyclin dependent kinase 14) | 0.602 | 1 | -0.227 | -0.1 | -0.124 | inactive |
| CSNK1G3 (casein kinase 1 gamma 3) | 0.602 | 1 | -0.283 | -0.1 | -0.0448 | inactive |
| STK36 (serine/threonine kinase 36) | 0.602 | 1 | -0.0957 | -0.1 | 0.088 | inactive |
| PEAK1 (pseudopodium enriched atypical kinase 1) | -1.54 | 0.777 | -0.0692 | -0.0393 | 0.119 | inactive |
| ABL2 (ABL proto-oncogene 2, non-receptor tyrosine kinase) | 0.602 | 1 | -0.0371 | -0.0553 | 0.0191 | inactive |
| WNK2 (WNK lysine deficient protein kinase 2) | 0.602 | 1 | -0.143 | -0.0867 | -0.0879 | inactive |
| PRKACA (protein kinase cAMP-activated catalytic subunit alpha) | 0.602 | 1 | -0.121 | -0.1 | 0.0539 | inactive |
| CASP8 (caspase 8) | 0.602 | 1 | -0.283 | -0.1 | -0.244 | inactive |
| KCNH8 (potassium voltage-gated channel subfamily H member 8) | 0.602 | 1 | -0.215 | -0.1 | 0.165 | inactive |
| MAP3K19 (mitogen-activated protein kinase kinase kinase 19) | 0.445 | 0.984 | -0.0257 | 0.0351 | 0.0706 | inactive |
| TBCK (TBC1 domain containing kinase) | 0.602 | 1 | -0.118 | -0.1 | -0.0758 | inactive |
| MAPK3 (mitogen-activated protein kinase 3) | -1.58 | 0.773 | -0.252 | -0.146 | -0.0315 | inactive |
| PAK2 (p21 (RAC1) activated kinase 2) | -0.666 | 0.868 | -0.00639 | -0.0557 | 0.0969 | inactive |
| PRKCB (protein kinase C beta) | -0.012 | 0.936 | -0.138 | -0.158 | 0.129 | inactive |
| BCR (BCR activator of RhoGEF and GTPase) | -0.505 | 0.885 | -0.219 | -0.204 | 0.056 | inactive |
| CDK11A (cyclin dependent kinase 11A) | -1.52 | 0.78 | -0.313 | -0.27 | -0.0893 | inactive |
| IP6K1 (inositol hexakisphosphate kinase 1) | 0.36 | 0.975 | -0.178 | -0.123 | 0.0524 | inactive |
| STK32C (serine/threonine kinase 32C) | 0.602 | 1 | -0.239 | -0.1 | -0.0619 | inactive |
| MAP2K5 (mitogen-activated protein kinase kinase 5) | 0.147 | 0.953 | -0.156 | -0.143 | -0.104 | inactive |
| MERTK (MER proto-oncogene, tyrosine kinase) | 0.134 | 0.951 | -0.236 | -0.144 | 0.0124 | inactive |

Quoted from above (2 entries):
| gene | viability robust z-score, siRNA alone | viability vs control, no drug (fraction of control) | synergy score with BYL719 | synergy score with cetuximab | synergy score with trametinib | Outcome |
| --- | --- | --- | --- | --- | --- | --- |
| CASP8 (caspase 8) | 0.602 | 1 | -0.283 | -0.1 | -0.244 | inactive |
| KCNH8 (potassium voltage-gated channel subfamily H member 8) | 0.602 | 1 | -0.215 | -0.1 | 0.165 | inactive |
